Drawing on the supplement of paper PMC7580552, this text covers biofilm formation for 21 molecules.

SMILES strings stand for the structures. Structures can show the parent of a compound that is named as a salt. Some of the results follow. Plates or batches differ in their baseline, so values are only roughly comparable.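 Biofilm, quantified by the absorbance of well-retained crystal violet, is assayed using the K-12 laboratory model grown unshaken in 96-well plates. Candidate specific biofilm inhibitors were drugs that sharply lowered staining yet reduced free-floating growth by less than 70%.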

The experiment relates to Escherichia coli W3110. Nature of the experiment: biofilm formation (crystal violet staining) relative to untreated control; higher = more biofilm. The note with it: 10 µM; 20-24 h; 30 °C; TB.
The molecule `C#CCN(C)CCCOc1ccc(Cl)cc1Cl` [Clorgyline hydrochloride] showed a biofilm formation of 62%.

The molecule `Cc1cnc(C(=O)NCCc2ccc(S(=O)(=O)NC(=O)NC3CCCCC3)cc2)cn1` [Glipizide] showed a biofilm formation of 84%.

`O=C1[C@H](CC[C@H](O)c2ccc(F)cc2)[C@@H](c2ccc(O)cc2)N1c1ccc(F)cc1` [Ezetimibe] showed a biofilm formation of 79%.

In turn, `CCC1NC(=O)c2cc(S(N)(=O)=O)c(Cl)cc2N1` (stereo unspecified) [Quinethazone] showed a biofilm formation of 82%.

`CCN(CC)CCOc1ccc(C(=C(Cl)c2ccccc2)c2ccccc2)cc1` [Clomiphene citrate (Z,E)] gave a biofilm formation of 64%.

In turn, `CN(C)[C@@H]1C(O)=C(C(=O)NCNCCCC[C@H](N)C(=O)O)C(=O)[C@@]2(O)C(O)=C3C(=O)c4c(O)cccc4[C@@](C)(O)[C@H]3C[C@@H]12` [Lymecycline] registered a biofilm formation of 76%.

As to `CCCCNc1ccc(C(=O)OCCN(C)C)cc1` [Tetracaine hydrochloride], the biofilm formation amounted to 88%.

Turning to `CCCCCOC(=O)Nc1nc(=O)n([C@@H]2O[C@H](C)[C@@H](O)[C@H]2O)cc1F` [Capecitabine], the biofilm formation turned out to be 75%.

`CN1CCOC(c2ccccc2)c2ccccc2C1` (stereo unspecified) [Nefopam hydrochloride]: the biofilm formation turned out to be 67%.

The molecule `CN1CCC(=C2c3ccccc3CCc3sccc32)CC1` [Pizotifen malate] yielded a biofilm formation of 67%.

The molecule `O=C1C(O)=C([C@H]2CC[C@H](c3ccc(Cl)cc3)CC2)C(=O)c2ccccc21` [Atovaquone] had a biofilm formation of 65%.

For `CC(C)NCC(O)c1ccc(O)c(O)c1` (single isomer, unassigned; (-)) [(-)-Isoproterenol hydrochloride], the biofilm formation came out at 67%.

On to `Cc1ccccc1C(OCCN(C)C)c1ccccc1` (stereo unspecified) [Orphenadrine hydrochloride], for which the biofilm formation came to 93%.

For the molecule `CN(C)CCOC(c1ccc(Cl)cc1)c1ccccn1` (stereo unspecified) [Carbinoxamine maleate salt], the biofilm formation was 73%.

As to `O=C1CCc2ccc(OCCCCN3CCN(c4cccc(Cl)c4Cl)CC3)cc2N1` [Aripiprazole], the biofilm formation is 78%.

`NC(=O)NC1NC(=O)NC1=O` (stereo unspecified) [Allantoin]: the biofilm formation came to 84%.

As for `COC(=O)C1=C(C)NC(C)=C(C(=O)OCC(C)C)C1c1ccccc1[N+](=O)[O-]` (stereo unspecified) [Nisoldipine], the biofilm formation came out at 51%.

With `COC(=O)C1=C(C)NC(C)=C(C(=O)OCCN(C)Cc2ccccc2)C1c1cccc([N+](=O)[O-])c1` (stereo unspecified) [Nicardipine hydrochloride], the biofilm formation came to 69%.

On to `CN1CCN(c2c(F)cc3c(=O)c(C(=O)O)cn4c3c2SCC4)CC1` [Rufloxacin], for which the biofilm formation was found to be 6%.

As for `CN1CCC[C@@H]1CCO[C@](C)(c1ccccc1)c1ccc(Cl)cc1` [Clemastine fumarate], the biofilm formation was 55%.

As to `CCOc1ccc(NC(C)=O)cc1` [Phenacetin], the biofilm formation was 64%.
